# Library screen at single concentrations

The filed quantity is “Percent Effect” (%). The record does not define 0% and 100%; most values in the screen are far below 50% and negative numbers occur (in some assays of this library far below -100). This is an unselected part of the compounds tested.

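Whole-parasite assay of Trypanosoma brucei over 72 hours; the read-out is not stated. Tested at 30 µM. The record gives no direction; compounds that gave an IC50 in retests scored well above the rest, so higher reads as stronger inhibition. Values scatter widely below zero; nearly all retest evidence comes from the higher of the two concentrations used. Of about 64,000 compounds tested this way, about 940 (1.5%) reached 50% or more in at least one test.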

Compound | effect
Cc1ccc(C(=O)N(CC2CCCO2)c2ccncc2)o1 (centres unmarked) | 5.477
O=C(O)C(F)(F)F.O=C(O)C(F)(F)F.[H][C@@]12C[C@@H](C(=O)NC)N(C)[C@]1([H])CN(Cc1ccco1)C2 | -9.421
Cc1nc(C)c(CN2CCOC(Cc3ccccc3Cl)C2)nc1C (centres unmarked) | 6.04
Cc1nn(C)c(C)c1OCC(=O)NCC(O)c1ccco1 (centres unmarked) | -43.68
COc1cccc(S(=O)(=O)N2CCCc3c(OC)nn(C)c3C2)c1 | -110.1
CC(C)CN1CCC2(CC(C(=O)NCc3cccnc3)=NO2)C1 (centres unmarked) | -19.83
CC1(C(=O)NCCCOc2ccccc2F)CC(=O)N2C=CC=CC2=N1 (centres unmarked) | 3.952
CC(=O)N(Cc1noc(C)n1)C1CCN(Cc2cc(C)on2)C1 (centres unmarked) | -24.01
c1cc2c(cc1-c1noc3c1CN(C1CCSCC1)CC3)OCO2 | -49.35
CCCN1CC(C(=O)Nc2ccccn2)CC1=O (centres unmarked) | 4.84
CCc1nccn1-c1cncc(C2CCCN2Cc2ccccn2)n1 (centres unmarked) | -14.35
O=C(Nc1cnn(-c2ccccc2Cl)c1)N[C@@H]1C=C[C@H](CO)C1 | 9.461
[H][C@@]12C[C@@H](OCCOC)CN1CCN(C(=O)c1ccc(C)nc1)C2 | -11.17
CNC(=O)CN(C)c1nc(-c2ccc(C(N)=O)cc2)nc2c1CCNC2 | -22.39
CC(=O)N(C)Cc1ccccc1NC(=O)c1ccccc1C | -23.41
CC(OCC1CC1)C(=O)Nc1ccn(Cc2ccccc2)n1 (centres unmarked) | -16.74
[H][C@]12CCN(c3cnccn3)C[C@]1(COC)CC[C@@H](N1CCOCC1)C2 | -52.59
Cc1cc(F)ccc1S(=O)(=O)N1CCN(C)c2ccncc21 | -9.13
CCNc1ccc(-c2ccnc3c2ccn3C)nn1 | 8.94
Cc1cncc(C(=O)N2CCCCC2c2nc[nH]n2)c1 (centres unmarked) | -27.83
Cn1ccc2c(-c3nccc(N)n3)ccnc21 | -53.72
CCOCC(=O)NS(=O)(=O)c1ccc(F)cc1C(F)(F)F | -14.68
CN(C)C(=O)NCc1nnc2n1CCN(Cc1cccs1)C2 | -71.73
CCn1c(CN(C)Cc2csc(C)n2)nc2cc(F)ccc21 | -30.85
Cc1csc(CN(C)C(=O)Nc2cnn(CC3CCCO3)c2)n1 (centres unmarked) | 6.295
O=C(O)C(F)(F)F.[H][C@@]12C[C@H](C(=O)N3CCCO3)CN(Cc3ccoc3)[C@]1([H])CCO2 | -1.299
Cc1nn(C)c(C)c1C1CCCN1C(=O)c1cnc2n[nH]c(C)c2c1 (centres unmarked) | 28.56
CCOc1ncccc1CNc1cc(COC)ncn1 | -16.21
CSc1nc2ncc3c(=O)n(CCN4CCCCC4)ccc3n2n1 | -55.56
OCCC[C@@H]1CN(c2ncc(Cl)cc2Cl)CC[C@@H]1N1CCOCC1 | -46.41
CCc1nc(C)cn1C(=O)Nc1ccc(F)cc1 | 24.16
CC(CNC(=O)c1nnn(-c2ccccc2)c1C(F)(F)F)N(C)C (centres unmarked) | -5.304
NC(=O)NC(=O)CCSCc1coc(-c2cccc(Cl)c2)n1 | -12.41
CCCc1nc(CNCC2CCCN2c2cccnn2)cs1 (centres unmarked) | 34.1
Cc1ccc(S(=O)(=O)N2CCC(N3CCCCC3)CC2)cc1C | -91.04
O=C(c1ccncc1)N1Cc2ccccc2OC2(CCOCC2)C1 | 15.35
Cn1cc(NS(=O)(=O)c2ccc3c(c2)CCCC3)ccc1=O | -18.86
[H][C@@]12C[C@@H](C(=O)NC(C)C)CN(Cc3ccc4ccccc4n3)[C@]1([H])CCO2 | -465.4
CC(C)C(O)CCNC(=O)Nc1cc(F)ccc1-n1cccn1 (centres unmarked) | 88.94
N#CC(NC(=O)CCC(=O)NC1CCCC1)c1ccc(F)cc1F (centres unmarked) | -20.18
CC(C)c1cc(NC(=O)CN2CCCC2c2noc(C(C)C)n2)on1 (centres unmarked) | 0.3759
Cc1ccc(C(=O)NCC2CCN(Cc3ccccc3C#N)C2)cn1 (centres unmarked) | -78.78
O=C(Cc1ccccc1F)NCCN1CCOCC1 | 8.453
Cc1cccc(CN2C(=O)OCC2CO)c1F (centres unmarked) | -21.19
Cc1noc(C)c1CS(=O)(=O)CC(=O)NCCc1cccs1 | -36.21
CC1(C(N)=O)CN(CC2CCC2)CCO1 (centres unmarked) | -6.083
CC(NCC1CCS(=O)(=O)CC1)c1cccc(OC(F)F)c1 (centres unmarked) | -15.39
CN1CC2(CCCN(c3nc(N)nc4c3CCCC4)C2)OC1=O (centres unmarked) | -3.319
Cc1[nH]ccc1C(=O)N1CCC2(CC1)c1nc[nH]c1CCN2CC(C)C | -30.81
O=C(c1cccc2ncccc12)N1CCC(Nc2cccnn2)CC1 | 12.82
CN(CC1Cc2ccccc2CN1C)C(=O)Cc1cccs1 (centres unmarked) | -9.978
CN(C(=O)c1ccccc1N(C)S(C)(=O)=O)c1ccc(C(C)(C)C)cc1 | -26.71
c1cnc(N2CCN(CCn3ccnc3-c3ccncc3)CC2)nc1 | 20.16
CC1CCCN(CCNC(=O)c2scnc2Cl)C1 (centres unmarked) | 18.78
CC(C)c1ccc(CCC(=O)N2CCOCC2c2ncon2)cc1 (centres unmarked) | -14.42
[H][C@]12CC[C@]([H])(CN(C(=O)C3CCC3)C1)N(Cc1cnc(CC)nc1)C2 | -27.02
O=C(c1ccc(N2CCCC2)nc1)N1CCCC(n2cncn2)C1 (centres unmarked) | 0.4585
CN(C)CCN1CCC2(CC1)CN(Cc1cccnc1)C(=O)CO2.O=C(O)C(F)(F)F.O=C(O)C(F)(F)F.O=C(O)C(F)(F)F | -84.7
CCOc1ccc(C#N)cc1NC(=O)N1CCCC(NC(=O)CC)C1 (centres unmarked) | 8.911
c1ccc(CO[C@H]2CO[C@@]3(CCCN(Cc4ccncc4)C3)C2)nc1 | -3.636
c1cc(CN2CCC3(CC2)COC(COCC2CC2)C3)co1 (centres unmarked) | -13.45
CC(C)c1cc(C(F)(F)F)n2nc(CCC(=O)O)nc2n1 | -7.888
COCCN1CCN(Cc2cccc(C(=O)N(C)C)c2)CC1C (centres unmarked) | -18.79
CC(=O)N1CC(=O)N(c2ccsc2)CC12CCN(Cc1ccccn1)C2.O=C(O)C(F)(F)F (centres unmarked) | 8.655
COCCOCC(=O)Nc1ccc(C)cc1Cl | -10.26
Cc1ccsc1CN1CCC2(CC1)CC(OCc1cccnc1)CO2.O=C(O)C(F)(F)F.O=C(O)C(F)(F)F (centres unmarked) | -28.22
c1cc2n(n1)CC(CNCc1ccc(OC3CCCC3)nc1)CN2 (centres unmarked) | 80.85
Cc1c(C(=O)NCC2CCN(Cc3ccco3)C2)[nH]c2ccccc12 (centres unmarked) | -2.924
[H][C@@]12CS(=O)(=O)C[C@]1([H])N(C(=O)c1cccc(C)n1)CCN2S(C)(=O)=O | -14.81
N#CCCN(CC1CCCO1)C(=O)c1ccc2nonc2c1 (centres unmarked) | 15.63
Cc1ccc(C(=O)NC2CCN(S(C)(=O)=O)CC2)c(=O)[nH]1 | -28.46
[H][C@]12CC[C@]([H])(CN(C(=O)c3ccncc3)C1)N(C(=O)COCC)C2 | -27.89
Cc1nc(C2CCNC2)nc2c1CCC(=O)N2CC(C)C.Cl (centres unmarked) | -4.177
CC(=O)N1CCc2[nH]nc(C(=O)N3CC=CC3)c2C1 | -26.34
O=S(=O)(Nc1cnc(N2CCCC2)nc1)c1ccc(F)cc1F | -13.13
CNc1cc(C2CN(Cc3coc(C)n3)CCO2)nc(C)n1 (centres unmarked) | -8.143
O=C1NCCCC12CCN(c1nc3c(c(C(F)(F)F)n1)CCCC3)C2 (centres unmarked) | -8.541
O=C(O)C(F)(F)F.O=C(O)C(F)(F)F.O=C(O)C(F)(F)F.c1ccc(CN2CCCC3(CCN(Cc4cccs4)C3)C2)nc1 (centres unmarked) | -21.37
Cc1nc(CC(=O)NCc2csc(N3CCCC3)n2)cs1 | 8.643
OC1(CN2CCCCC2)CCN(c2ccc(C(F)(F)F)cn2)C1 (centres unmarked) | 3.051
CNC(=O)c1ccc(CN(C(=O)c2scnc2C)C2CC2)cc1 | -41.75
O=C(Cn1nc(-c2ccc(F)cc2)oc1=O)NCc1ccc(F)cc1 | -80.77
CNS(=O)(=O)c1cccc(CNc2ccc(C#N)cn2)c1 | -7.082
O=C(CO)N1CCN(C(=O)c2coc3ccccc23)CC1 | -23.37
CC(C)c1nnc(NCCS(C)(=O)=O)s1 | -27.59
CC(SCc1cc(Br)cc2cccnc12)C(N)=O (centres unmarked) | -1.241
CSc1cccc(CN(C)C(=O)C2CC(=O)N(CCN(C)C)C2)c1 (centres unmarked) | -3.646
COCc1noc(CCNC(=O)c2cc(C)c(C)[nH]c2=O)n1 | -9.964
CC(C)n1nc2c(cc1=O)CN(CCOc1ccc(C#N)cc1)CC2 | 6.305
CC(C)(C)NC(=O)CNc1ccc(C#N)c(C(F)(F)F)c1 | -17.66
CC(C)c1ncncc1C(=O)NCCN1CCCS1(=O)=O | -20.08
CCCS(=O)(=O)N1CCOC2(CCCN(c3ncc(F)cn3)C2)C1 (centres unmarked) | -29.91
CCN(CC1CCOC1)C(=O)CSCC(=O)Nc1ccc(C)cc1 (centres unmarked) | 6.34
O=C(O)C(F)(F)F.O=C(O)C(F)(F)F.O=C(O)C(F)(F)F.[H][C@@]12COC[C@]1([H])[C@H](N(C)C)CN2Cc1cnn(C)c1 | -10.23
CC(NC(=O)c1cc(-c2cccc(Cl)c2)no1)C(=O)N(C)C (centres unmarked) | -53.35

The values are deposited in ChEMBL (CHEMBL3988442, “University of Dundee, Small-Polar-MMV Screening Library” (2021)).